Data as given in PubChem BioAssay AID686938 (Drosophila RNAi Screening Center, 2013).

Assay: 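Looking for CRAC channel components and the factors controlling them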 (primary screen)
System: Drosophila S2R+ cells
Reagent: long dsRNA against Drosophila genes, about 0.25 µg dsRNA per well, roughly 10,000 cells
Time to read-out: 5 days of knock-down before the calcium assay
Treatment: thapsigargin (SERCA pump blocker) to empty calcium stores; entry signal taken 4 min after adding it
Measurement: 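Duplicate raw fluo-4 intensities per well from a plate reader, at rest and four minutes after thapsigargin emptied calcium stores; entry-to-rest ratio filled for only some wells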
Reading the numbers: calcium entry signal: higher = stronger calcium signal after store depletion; entry to resting ratio: higher = more calcium entry relative to resting level; resting calcium signal: higher = higher resting calcium signal
Active means: 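Called when the plate z-score of the entry-to-rest ratio, mean of duplicates, falls below −3; wells with low overall dye signal (Fmax z below −2) or more than five off-targets excluded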
Calls: active = strongly reduced calcium entry; inactive = no strong reduction
The deposit covers about 23,000 reagents; shown is an unselected part of those that have a named target and a result. In the full data, 75 (0.33%) are marked active. 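Raw plate signals without normalisation; calls rest on plate z-scores that were not deposited; ratio present for only 364 wells.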 A plus sign joins genes that one reagent is predicted to hit. Reagent sequences are not shown. Not stated in the record: the dose of the treatment.

no.	target	DRSC id	calcium entry signal, replicate 1 (fluorescence units)	calcium entry signal, replicate 2 (fluorescence units)	entry to resting ratio	resting calcium signal, replicate 1 (fluorescence units)	resting calcium signal, replicate 2 (fluorescence units)	Call
1	CG1307	DRSC12492	3.43e7	4.36e7		1.60e7	1.87e7	inactive
2	CG9825	DRSC04569	4.28e7	4.19e7		2.11e7	1.90e7	inactive
3	Mkp3	DRSC10084	4.27e7	5.67e7		2.08e7	3.75e7	inactive
4	Mkp3	DRSC10085	1.80e7	3.80e7		1.05e7	1.46e7	inactive
5	CG11095	DRSC19375	2.26e7	2.93e7		1.08e7	1.37e7	inactive
6	sprt	DRSC07323	2.78e7	3.33e7		1.26e7	1.59e7	inactive
7	eIF2Balpha	DRSC16332	3.18e7	4.03e7		1.51e7	1.71e7	inactive
8	Hml	DRSC11183	3.19e7	3.85e7		1.70e7	1.55e7	inactive
9	CG13575	DRSC04211	3.48e7	4.83e7		1.83e7	2.18e7	inactive
10	CG13575	DRSC22851	2.04e7	2.94e7		1.11e7	1.45e7	inactive
11	CG43707	DRSC00280	3.88e7	3.69e7		1.92e7	1.74e7	inactive
12	CG43707	DRSC22869	1.92e7	2.71e7		1.03e7	1.25e7	inactive
13	CG43707	DRSC22912	4.53e7	3.59e7		2.33e7	1.81e7	inactive
14	l(2)SH0834	DRSC02854	2.77e7	3.54e7		1.37e7	1.63e7	inactive
15	Tomosyn	DRSC19365	4.19e7	4.34e7		2.12e7	2.13e7	inactive
16	Tomosyn	DRSC19692	3.11e7	4.56e7		1.64e7	2.25e7	inactive
17	Tomosyn	DRSC19782	4.12e7	3.95e7		1.81e7	1.76e7	inactive
18	Tomosyn	DRSC19842	3.09e7	4.83e7		1.53e7	2.30e7	inactive
19	CG9672	DRSC20201	2.10e7	2.37e7		1.15e7	1.12e7	inactive
20	CG13712	DRSC08321	2.99e7	7.76e7		1.37e7	2.65e7	inactive
21	CG31955	DRSC00285	4.01e7	3.59e7		1.88e7	1.62e7	inactive
22	DIP-alpha	DRSC17891	4.31e7	2.73e7		1.99e7	1.46e7	inactive
23	DIP-alpha	DRSC17892	4.56e7	4.87e7	1.8	2.59e7	2.86e7	inactive
24	DIP-alpha	DRSC23275	4.20e7	4.13e7		1.97e7	1.79e7	inactive
25	asRNA:Eig63F-2 + Eip63F-1	DRSC21446	3.46e7	3.24e7		2.05e7	1.52e7	inactive
26	CG17784	DRSC15268	3.77e7	5.73e7		2.07e7	2.24e7	inactive
27	CG9008	DRSC01889	3.56e7			1.59e7		inactive
28	BomBc1	DRSC06501	5.00e7	5.64e7		2.02e7	2.64e7	inactive
29	neo	DRSC16316	3.04e7	3.67e7		1.33e7	1.76e7	inactive
30	sut2	DRSC07701	4.36e7	3.37e7		1.91e7	1.59e7	inactive
31	Dso1	DRSC21815	2.67e7	2.66e7		1.58e7	1.76e7	inactive
32	CG3397	DRSC15487	2.71e7	4.62e7		1.29e7	1.88e7	inactive
33	Hs3st-A	DRSC06507	4.30e7	3.62e7		2.31e7	1.93e7	inactive
34	Hs3st-A	DRSC06508	5.59e7	5.98e7		2.62e7	2.70e7	inactive
35	Hs3st-A	DRSC06509	4.69e7	4.78e7		2.10e7	2.34e7	inactive
36	Caper	DRSC02137	3.61e7			1.80e7		inactive
37	CG8508	DRSC16436	3.99e7	4.64e7		1.61e7	2.00e7	inactive
38	E(spl)m2-BFM	DRSC16991	4.28e7	5.59e7		2.65e7	2.77e7	inactive
39	E(spl)m2-BFM	DRSC23082	4.34e7	3.14e7		2.12e7	1.46e7	inactive
40	ninaB	DRSC16807	2.96e7	4.78e7		1.45e7	6.33e7	inactive
